Assay results taken from PubChem BioAssay (NCATS).
The inconclusive results got no clear call from the source; some entries with a clear call stand among them for comparison. Where the call is inconclusive, the potency comes from a doubtful curve fit. Active and inactive are the calls of the source. Calls follow the shape of the dose curve; as a rule, active = well fitted cell-killing curve with a large enough effect; inconclusive = small, poorly fitted or top-dose-only effect, or effect the other way; inactive = no such curve, though single readings can be large or run the other way.

What was measured:
[1] = Quantitative High-Throughput drug screen in 47 multiple myeloma cell lines against the NCATS MIPE library collection: RPMI8226_ATCC cell viability assay (AID 1919871); conditions: RPMI8226 myeloma viability, CellTiter-Glo ATP luminescence, 48 h; series mostly up to 45.8 µM; also: nearly all actives have a fitted effect of over 30% in size
Summary of the method: (§1)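 ATP-based CellTiter-Glo luminescence after 48 h drug exposure (37 °C, 5% CO2) of 500 myeloma cells per well. DMSO-only wells set 100% viability, media-only wells 0%; MIPE 4.0 library added by pin tool.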

[2] = Quantitative High-Throughput drug screen in 47 multiple myeloma cell lines against the NCATS MIPE library collection: KMS28BM_JCRB cell viability assay (AID 1919874); also: nearly all actives have a fitted effect of over 35% in size
Summary of the method: as §1

[3] = Quantitative High-Throughput drug screen in 47 multiple myeloma cell lines against the NCATS MIPE library collection: KMS11_JCRBsus cell viability assay (AID 1919873); also: nearly all actives have a fitted effect of over 50% in size
Summary of the method: as §1

[4] = Quantitative High-Throughput drug screen in 47 multiple myeloma cell lines against the NCATS MIPE library collection: OPM2_DSMZ cell viability assay (AID 1919872); conditions: OPM2 myeloma viability, CellTiter-Glo ATP luminescence, 48 h; series mostly up to 45.8 µM; also: nearly all actives have a fitted effect of over 30% in size
Summary of the method: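 CellTiter-Glo luminescence (ATP) after 48 h compound exposure, 37C/5% CO2; 500 cells/well; MIPE 4.0 approved/investigational drugs pinned in; DMSO = 100%, media only = 0% viability.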
Potency is read from the fitted curve at half-maximal effect.

Compound | Potency [1] | Potency [2] | Potency [3] | Potency [4]
C[C@@H](Oc1cc(-c2cnn(C3CCNCC3)c2)cnc1N)c1c(Cl)ccc(F)c1Cl | active: 13.2 µM | active: 8.33 µM |  | 
O=c1n(CCCN2CCN(c3cccc(Cl)c3)CC2)nc2ccccn12 | inactive | inconclusive: 23.5 µM [cytotoxic, single point] |  | 
CCN(CC)CCCC(C)Nc1ccnc2cc(Cl)ccc12 (stereo unspecified) | inactive | inconclusive: 14.8 µM [cytotoxic, partial curve, poor fit] | inconclusive: 20.9 µM [cytotoxic, single point] | 
NS(=O)(=O)OC[C@@H]1C[C@@H](n2ccc3c(N[C@H]4CCc5ccccc54)ncnc32)C[C@H]1O | inconclusive: 6.62 µM [cytotoxic, full curve] | inconclusive: 1.32 µM [cytotoxic, full curve] |  | 
CCN[C@H]1C[C@H](C)S(=O)(=O)c2sc(S(N)(=O)=O)cc21 | inconclusive: 20.9 µM [cytotoxic, single point] | inactive |  | 
NC(N)=NC(N)=NCCc1ccccc1 |  |  | inconclusive: 16.6 µM [cytotoxic, partial curve] | inconclusive: 4.18 µM [cytotoxic, partial curve, poor fit]
CCc1cccc(CC)c1NC(=O)N1Cc2[nH]nc(NC(=O)c3ccc(N4CCN(C)CC4)cc3)c2C1 |  |  |  | inconclusive: 9.35 µM [cytotoxic, full curve, poor fit]
OC[C@H]1O[C@@H](O[C@H]2[C@@H](O)[C@@](O)(CO)O[C@@H]2CO)[C@H](O)[C@@H](O)[C@@H]1O | inactive | inconclusive: 0.296 µM [cytotoxic, full curve, poor fit] |  | 
